PMC10629681
Substitutions are numbered along the chain they refer to. No constants are given. Whether binding was seen depends on the method and setting. Binding seen in cells or lysates may run through a third protein. Some binding calls cover weakened binding; strength is not graded here. Tags and fused reporters may be left off the sequences shown.

By UniProt entry, the sequences of proteins in these tests, tags left out.
UniProt P42582: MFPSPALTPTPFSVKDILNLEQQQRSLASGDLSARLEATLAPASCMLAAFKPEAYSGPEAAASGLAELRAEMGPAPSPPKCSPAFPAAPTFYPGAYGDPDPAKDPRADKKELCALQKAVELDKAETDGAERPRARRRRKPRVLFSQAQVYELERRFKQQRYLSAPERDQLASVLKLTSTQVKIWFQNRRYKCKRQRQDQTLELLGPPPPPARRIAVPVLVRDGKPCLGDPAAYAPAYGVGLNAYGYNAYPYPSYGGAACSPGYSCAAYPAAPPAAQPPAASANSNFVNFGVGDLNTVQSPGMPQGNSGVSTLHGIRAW

Tests used:
[1] = target: T1, Tbx20-GFP (wild-type T-box transcription factor 20) (UniProt Q9ES03); assay: co-IP; GFP-Trap magnetic beads on lysate of HEK293 cells co-expressing Tbx20-GFP (wild type or EH1Mut) and Nkx2-5-V5; lysis buffer 20 mM K-HEPES pH 7.4, 150 mM NaCl, 100 mM KOAc, 2 mM MgCl2, 0.5% NP-40, with nuclease; 1 h at 4°C; Western blotting
T1 sequence: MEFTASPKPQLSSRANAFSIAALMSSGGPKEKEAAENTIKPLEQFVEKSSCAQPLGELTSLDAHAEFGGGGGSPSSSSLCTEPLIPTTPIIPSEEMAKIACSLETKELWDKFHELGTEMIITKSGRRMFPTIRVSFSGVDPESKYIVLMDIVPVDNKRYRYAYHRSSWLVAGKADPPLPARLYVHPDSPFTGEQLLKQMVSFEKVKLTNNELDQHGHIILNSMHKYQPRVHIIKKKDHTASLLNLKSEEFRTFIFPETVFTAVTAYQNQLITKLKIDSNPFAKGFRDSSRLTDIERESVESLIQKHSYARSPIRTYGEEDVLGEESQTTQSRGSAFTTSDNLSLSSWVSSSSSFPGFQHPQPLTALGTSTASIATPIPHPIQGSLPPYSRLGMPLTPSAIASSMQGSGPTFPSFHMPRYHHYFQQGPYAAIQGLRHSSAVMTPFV

[2] = target: T2, Tbx20^EH1MUT-GFP (Tbx20 with the EH1 domain substitutions F18L and S19I) (UniProt Q9ES03); assay: as above
T2 sequence: T1 sequence with F18L, S19I

With Nkx2-5-V5 (from UniProt P42582 1-318) the binding [1] was “binds” and the binding [2] was “binds”.
